Data on 3 sequences can be found in article PMC6528599.

This series addresses T1, GlaR (YugA) (Lactococcus lactis IL1403) (UniProt Q7DAT6).
T1 sequence (looked up): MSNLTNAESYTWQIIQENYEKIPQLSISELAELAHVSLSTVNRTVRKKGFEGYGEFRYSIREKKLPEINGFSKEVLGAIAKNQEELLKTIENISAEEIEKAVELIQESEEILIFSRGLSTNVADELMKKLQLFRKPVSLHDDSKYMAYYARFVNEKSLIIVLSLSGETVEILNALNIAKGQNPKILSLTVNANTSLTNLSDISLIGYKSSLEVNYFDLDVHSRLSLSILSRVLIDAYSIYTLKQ
The experiment in a line: EMSA. The note with it: 250 mM galactose, EMSA: 1 nM DNA, 10 mM Tris-HCl pH 8.5, 10 mM MgCl2, 100 mM KCl, 0.1 mg/ml BSA (printed as 10x binding buffer), 20 ul, 20 min at 37 C, recombinant protein, residues 1-244, probe letters rebuilt from the primers and the genome.

Negatives hold for the conditions tested. Protein sequences can lack the tags named with them.

In the case of “CCATTTGTTGCTCTGGCTGAGTCACTGAAGTTTGATTAAACTTTTCCAGTAAAACTAAAGCTTCTTGTTGCTCTTTCCATAATTTTTGATCGTTAGGAAAGTAGAGTTCTTCTGTGTGAACTCGTTTGTAGCTTTCTAATTTAGGCATTTTATCAACTCCTTTTTAAAGCTCTCTTGATTTATGAAAATTAATTATTTACGAAATTTATAAATTCATAAAAACCTTTTTGTCCTACTTCATTATCTTTGAATACTCCGGCATCTTTTAACACCTGTTCAAATACTTCTCCAACTGCTTCCTG (double strand) [thgA upstream region]”, under “10 mM MgCl2, 4 uM GlaR”, the binding result is recorded as “no binding”. On to “CTTTCATGGGAATCCTCCTTTATACTAAATCTACTTAATTCATAAGTAAATCTACAAAGCTACTGTTTTGCCTTTTGAAACGAGTAATCCTTGGTTGGGAAAACTTTTATTTTGGATAAGTTTTTAAAAGCGAAACAGTCTTCAATTTCATTTTGAAATCGCTCACATTTAGAGTATAACACTTTGATTTAAGAAAGGGTTTCCAATTTTAGCTTATCTTTTGGAAACCCTTTCTATTTTGCTCTTTTTATAAAAAAAAGCTCGATATGACTTGATATCGAAGCATTATTGTTTTAAAGTATAAATGGAGTAAGCATCAATTAG (double strand) [lacS upstream region]”, for which, where the note is “10 mM MgCl2, bound at 4 uM and also at 1-3.5 uM GlaR”, the binding result is listed as “binds”.

Turning to “CAAGTGGCTCAATCGTTCCATTTTGTAAAGCAAGACTAATAAAATCTTGAATTGATTGATAAATTGACATAAAATACTTTCTAATTTACTTCTGTAAGTAAAGTTCTTGCTTTGTCTTGATTAGTGAGTTTTGGAAATGAATACAAAATTCAAGCACTTAGTTTTGAGTGCTTGAATTTGCTATCACTAATTTAATGTTAACTCACTTAAATCACTCATAAAATTTTTTAAATATTATTTGATTTATTCAACATCCAACTTTGTTGAACCAGAACCAATTTGAGCGACGTAAAAGCTTGCTGGATAACCGACAAC (double strand) [galT upstream region]”, for the setting “10 mM MgCl2, 4 uM GlaR”, the binding result is given as “no binding”.
